In publication PMC8778097:
Results are given in words; binding and its absence hold for the method and conditions named. Binding seen in cells or lysates may run through a third protein. Some results given as binding are weak or reduced against the parent protein; the word gives no strength. Blank lines part the entries; values can stand above or below the substance they belong to.

Sequences of proteins named here, by UniProt entry; tags and fusion partners are left off.
UniProt P28360: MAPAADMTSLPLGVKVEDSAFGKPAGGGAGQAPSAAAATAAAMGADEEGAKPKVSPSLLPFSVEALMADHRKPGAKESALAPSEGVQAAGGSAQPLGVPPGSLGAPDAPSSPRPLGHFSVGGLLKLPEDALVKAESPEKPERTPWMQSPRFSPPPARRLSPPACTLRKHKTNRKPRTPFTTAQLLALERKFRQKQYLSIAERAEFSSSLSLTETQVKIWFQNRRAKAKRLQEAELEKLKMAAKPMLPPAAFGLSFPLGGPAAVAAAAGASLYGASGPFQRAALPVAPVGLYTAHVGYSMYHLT
UniProt P51784: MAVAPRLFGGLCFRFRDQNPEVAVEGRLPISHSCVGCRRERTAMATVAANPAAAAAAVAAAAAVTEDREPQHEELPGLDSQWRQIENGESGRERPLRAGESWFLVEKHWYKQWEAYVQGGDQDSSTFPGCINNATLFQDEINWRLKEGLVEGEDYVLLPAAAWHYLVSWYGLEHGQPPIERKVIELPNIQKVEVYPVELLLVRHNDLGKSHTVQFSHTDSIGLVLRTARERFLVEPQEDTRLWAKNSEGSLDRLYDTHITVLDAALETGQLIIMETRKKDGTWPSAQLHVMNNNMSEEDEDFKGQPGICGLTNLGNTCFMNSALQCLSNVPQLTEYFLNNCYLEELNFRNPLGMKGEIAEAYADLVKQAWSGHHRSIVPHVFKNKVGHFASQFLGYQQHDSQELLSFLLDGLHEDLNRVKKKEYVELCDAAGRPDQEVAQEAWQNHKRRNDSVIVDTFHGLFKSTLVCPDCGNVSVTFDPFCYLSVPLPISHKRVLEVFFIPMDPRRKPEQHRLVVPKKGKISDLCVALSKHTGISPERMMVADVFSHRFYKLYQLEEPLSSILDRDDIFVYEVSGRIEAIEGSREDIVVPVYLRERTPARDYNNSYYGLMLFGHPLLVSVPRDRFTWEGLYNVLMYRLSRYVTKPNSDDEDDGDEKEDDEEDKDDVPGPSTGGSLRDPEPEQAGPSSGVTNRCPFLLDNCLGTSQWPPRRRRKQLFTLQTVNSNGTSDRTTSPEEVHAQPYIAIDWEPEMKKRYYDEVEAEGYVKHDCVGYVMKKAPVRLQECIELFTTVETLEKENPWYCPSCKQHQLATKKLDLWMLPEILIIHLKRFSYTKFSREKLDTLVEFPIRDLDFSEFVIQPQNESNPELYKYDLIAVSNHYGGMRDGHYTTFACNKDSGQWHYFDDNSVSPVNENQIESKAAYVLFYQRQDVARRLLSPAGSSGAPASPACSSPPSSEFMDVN

Legend:
Myc-MSX1 (human) = Myc-MSX1 (human) (UniProt P28360); experiment: co-IP; Myc-MSX1 and HA-USP11 co-transfected in HEK293 cells; lysates in RIPA buffer immunoprecipitated with anti-Myc or anti-HA antibodies at 4 °C overnight, protein agarose beads, immunoblot; cells treated with MG132 for 6 h prior to harvest
[1] = target: ubiquitin-specific protease 11 (USP11), endogenous in hMSCs (human (endogenous in hMSCs)) (UniProt P51784); experiment: co-IP; endogenous proteins; hMSC lysates in RIPA buffer immunoprecipitated with anti-MSX1 or anti-USP11 antibodies at 4 °C overnight, protein agarose beads, immunoblot; cells treated with MG132 for 6 h prior to harvest
HA-USP11 = HA-USP11 (UniProt P51784); experiment: co-IP; Myc-MSX1 and HA-USP11 co-transfected in HEK293 cells; lysates in RIPA buffer immunoprecipitated with anti-Myc or anti-HA antibodies at 4 °C overnight, protein agarose beads, immunoblot; cells treated with MG132 for 6 h prior to harvest
[2] = target: Msh homeobox 1 (MSX1), endogenous in hMSCs (human (endogenous in hMSCs)) (UniProt P28360); experiment: co-IP; endogenous proteins; hMSC lysates in RIPA buffer immunoprecipitated with anti-MSX1 or anti-USP11 antibodies at 4 °C overnight, protein agarose beads, immunoblot; cells treated with MG132 for 6 h prior to harvest

binding (Myc-MSX1 (human)): binds
Substance: HA-USP11 (from UniProt P51784 1-963) (enzyme)

binding [1]: binds
Substance: Msh homeobox 1 (MSX1), endogenous in hMSCs (from UniProt P28360 1-303)

binding (HA-USP11): binds
Substance: Myc-MSX1 (from UniProt P28360 1-303)

binding [2]: binds
Substance: ubiquitin-specific protease 11 (USP11), endogenous in hMSCs (from UniProt P51784 1-963) (enzyme)
